Source: PMC3080859
No constants are given. Whether binding was seen depends on the method and setting. In cells and extracts the contact can be indirect. Binding calls can cover weak binding; strength is not graded here. Where a sequence is shown, tags or fusion partners need not be part of it.

Target: T1, RCN1-YFP fusion protein (A. thaliana) (UniProt Q38845)
T1 sequence: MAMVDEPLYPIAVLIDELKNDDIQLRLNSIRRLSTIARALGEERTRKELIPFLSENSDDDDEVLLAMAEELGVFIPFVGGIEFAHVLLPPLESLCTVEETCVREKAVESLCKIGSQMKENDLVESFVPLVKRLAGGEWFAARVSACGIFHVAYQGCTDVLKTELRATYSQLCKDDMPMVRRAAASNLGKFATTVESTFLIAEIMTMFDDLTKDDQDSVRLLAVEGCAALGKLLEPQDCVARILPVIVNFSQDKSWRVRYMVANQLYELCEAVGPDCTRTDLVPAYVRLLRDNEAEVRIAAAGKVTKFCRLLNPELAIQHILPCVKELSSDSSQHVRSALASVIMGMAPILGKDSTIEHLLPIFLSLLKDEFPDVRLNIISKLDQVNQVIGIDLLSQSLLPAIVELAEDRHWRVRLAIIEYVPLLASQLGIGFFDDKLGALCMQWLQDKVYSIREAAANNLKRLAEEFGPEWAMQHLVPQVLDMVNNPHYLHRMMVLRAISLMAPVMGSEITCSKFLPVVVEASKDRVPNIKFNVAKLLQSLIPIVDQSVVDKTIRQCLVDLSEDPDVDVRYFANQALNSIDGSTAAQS
Test: co-IP; anti-GFP antibody + Protein A agarose (or Protein A agarose alone) on extracts of dark-grown RCN1-YFP seedlings; co-IP buffer, 1 hour at 4°C, washed twice; immunoblot with anti-RCN1 and anti-C subunit antisera

Substance: PP2A C subunit (A. thaliana (endogenous in seedlings)) (enzyme)
- binding: binds
